Values of other authors, collected in patent US20110300232A1, “EFFECTS OF NITRIC OXIDE (NO) AND iNOS ON EXPRESSION AND SIGNAL TRANSDUCTION IN CANCER AND ITS USE IN DRUG DISCOVERY AND CANCER THERAPY DESIGN” (priority 2010, published 2011).

Conditions: fraction of the NO concentration generated by DEA/NO

## NCCN(CCN)/[N+]([O-])=N/O [DETA/NO]
  NO concentration generated relative to DEA/NO: one-third

## NCCCNCCCCN(CCCN)/[N+]([O-])=N/O [Sper/NO]
  NO concentration generated relative to DEA/NO: one-third
